PubChem BioAssay AID720505 – Drosophila RNAi Screening Center | 2013
Test: 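Genes needed for store-operated calcium entry in fly cells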 (primary screen). Cells: Drosophila S2R+ cells. Reagents: long dsRNA against Drosophila genes. Challenge: thapsigargin (2 µM) in calcium-free buffer to empty internal stores, then 2 mM calcium added back. Measurement: 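Stores emptied by 2 µM thapsigargin without calcium, then 2 mM calcium re-added; fluo-4 fluorescence followed by FLIPR in 384-well plates, per-well averaged endpoint, raw; two screen passes, some wells retested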. Scale: calcium signal and retest calcium signal: higher = more calcium entry after store depletion. Active means: 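About 1500 genes called as lowering calcium entry, by varying amounts, judged against per-plate control wells with STIM1 as positive and Rho1 as negative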. Calls: active = called as lowering calcium entry; inactive = not called.
The deposit covers about 20,000 reagents; shown is an unselected part of those that have a named target and a result. Over the whole deposit, about 2,100 (10%) are marked active. 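Raw plate signals without normalisation; calls rest on control-based scores that were not deposited; replicate 2 separates called from uncalled poorly.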 A plus sign joins genes that one reagent is predicted to hit. No sequences are given here. The record does not give: the amount of reagent, the time to read-out.

Dh44-R1 [DRSC07172] showed calcium signal, replicate 1 = 150; calcium signal, replicate 2 = 123; inactive.
Against CG31102 [DRSC14260], the entry reads calcium signal, replicate 1 = 250; calcium signal, replicate 2 = 106; inactive.
After knock-down of CheA46a [DRSC05184], the screen gave calcium signal, replicate 1 = 127; calcium signal, replicate 2 = 119; inactive.
With knock-down of cv-d [DRSC16522] the results were calcium signal, replicate 1 = 121; calcium signal, replicate 2 = 199; inactive.
After knock-down of cv-d [DRSC16524] the results were calcium signal, replicate 1 = 131; calcium signal, replicate 2 = 276; inactive.
After knock-down of cv-d [DRSC16526], the record shows calcium signal, replicate 1 = 127; calcium signal, replicate 2 = 195; inactive.
For CG12849 [DRSC04129], the entry reads calcium signal, replicate 1 = 129; calcium signal, replicate 2 = 191; inactive.
Knock-down of CG4741 [DRSC04228] came out at: calcium signal, replicate 1 = 134; calcium signal, replicate 2 = 171; inactive.
Knock-down of CG4741 [DRSC04485] resulted in: calcium signal, replicate 1 = 137; calcium signal, replicate 2 = 222; inactive.
After knock-down of CG15743 [DRSC19709], the screen gave calcium signal, replicate 1 = 109; calcium signal, replicate 2 = 84.8; inactive.
Asph [DRSC06783] scored calcium signal, replicate 1 = 122; calcium signal, replicate 2 = 128; inactive.
For Asph [DRSC07171] the deposit lists calcium signal, replicate 1 = 176; calcium signal, replicate 2 = 123; inactive.
Depletion of CG14629 [DRSC18476] gave: calcium signal, replicate 1 = 91.3; calcium signal, replicate 2 = 112; inactive.
yellow-e [DRSC16563] showed calcium signal, replicate 1 = 103; calcium signal, replicate 2 = 153; inactive.
With knock-down of CG3589 [DRSC04392], the record shows calcium signal, replicate 1 = 51.8; calcium signal, replicate 2 = 143; active.
Depletion of NdufA3 [DRSC18431] came out at: calcium signal, replicate 1 = 64.5; calcium signal, replicate 2 = 79.9; inactive.
After knock-down of CG18213 [DRSC15316], the record shows calcium signal, replicate 1 = 130; calcium signal, replicate 2 = 221; inactive.
Atg17 [DRSC12221] showed calcium signal, replicate 1 = 88; calcium signal, replicate 2 = 157; inactive.
With knock-down of CG43894 [DRSC10123], the screen gave calcium signal, replicate 1 = 127; calcium signal, replicate 2 = 66.3; inactive.
For CG6931 [DRSC10750], the entry reads calcium signal, replicate 1 = 106; calcium signal, replicate 2 = 112; inactive.
For CG31278 [DRSC16051], the values are calcium signal, replicate 1 = 153; calcium signal, replicate 2 = 104; inactive.
After knock-down of Ugt36E1 [DRSC02599] the results were calcium signal, replicate 1 = 96.6; calcium signal, replicate 2 = 103; inactive.
Knock-down of Ate1 [DRSC05925] came out at: calcium signal, replicate 1 = 99.2; calcium signal, replicate 2 = 114; inactive.
Knock-down of CG15435 [DRSC00450] resulted in: calcium signal, replicate 1 = 93.7; calcium signal, replicate 2 = 117; inactive.
ND-19 [DRSC04404] showed calcium signal, replicate 1 = 139; calcium signal, replicate 2 = 279; retest calcium signal, replicate 1 = 101; retest calcium signal, replicate 2 = 116; inactive.
For Ubx [DRSC16891] the deposit lists calcium signal, replicate 1 = 134; calcium signal, replicate 2 = 89.7; retest calcium signal, replicate 1 = 9314; retest calcium signal, replicate 2 = 166; inactive.
With knock-down of CG18258 [DRSC19798], the record shows calcium signal, replicate 1 = 94.2; calcium signal, replicate 2 = 127; inactive.
Pstk + CG14210 + Tim9b [DRSC19566] scored calcium signal, replicate 1 = 73.1; calcium signal, replicate 2 = 228; active.
Cdc5 [DRSC08577] scored calcium signal, replicate 1 = 120; calcium signal, replicate 2 = 77.9; inactive.
CG9541 [DRSC03257] showed calcium signal, replicate 1 = 99; calcium signal, replicate 2 = 105; inactive.
CG3819 [DRSC10378] scored calcium signal, replicate 1 = 52.7; calcium signal, replicate 2 = 74.7; active.
After knock-down of CG32109 [DRSC09816] the results were calcium signal, replicate 1 = 79.9; calcium signal, replicate 2 = 68.1; inactive.
Knock-down of Rbf2 [DRSC16816] came out at: calcium signal, replicate 1 = 121; calcium signal, replicate 2 = 209; inactive.
For sno [DRSC20378], the values are calcium signal, replicate 1 = 95.3; calcium signal, replicate 2 = 111; inactive.
Silencing of tsr [DRSC04718] resulted in: calcium signal, replicate 1 = 92; calcium signal, replicate 2 = 161; inactive.

2 neighbouring reagents from above:
Pstk + CG14210 + Tim9b [DRSC19566] → calcium signal, replicate 1: 73.1; calcium signal, replicate 2: 228; outcome: active
Cdc5 [DRSC08577] → calcium signal, replicate 1: 120; calcium signal, replicate 2: 77.9; outcome: inactive
